Assay results as given in paper PMC11044178.

Amino acid sequences for entries named in this document (tags omitted). Residues count along the entry.
UniProt Q07011, residues 24-255: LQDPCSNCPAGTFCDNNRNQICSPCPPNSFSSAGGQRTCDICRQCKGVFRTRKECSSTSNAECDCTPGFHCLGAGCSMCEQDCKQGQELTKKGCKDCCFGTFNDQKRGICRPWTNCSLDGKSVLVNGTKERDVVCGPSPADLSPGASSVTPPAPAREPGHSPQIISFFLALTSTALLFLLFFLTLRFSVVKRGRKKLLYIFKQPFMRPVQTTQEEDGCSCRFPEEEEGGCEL
UniProt Q9BYM8: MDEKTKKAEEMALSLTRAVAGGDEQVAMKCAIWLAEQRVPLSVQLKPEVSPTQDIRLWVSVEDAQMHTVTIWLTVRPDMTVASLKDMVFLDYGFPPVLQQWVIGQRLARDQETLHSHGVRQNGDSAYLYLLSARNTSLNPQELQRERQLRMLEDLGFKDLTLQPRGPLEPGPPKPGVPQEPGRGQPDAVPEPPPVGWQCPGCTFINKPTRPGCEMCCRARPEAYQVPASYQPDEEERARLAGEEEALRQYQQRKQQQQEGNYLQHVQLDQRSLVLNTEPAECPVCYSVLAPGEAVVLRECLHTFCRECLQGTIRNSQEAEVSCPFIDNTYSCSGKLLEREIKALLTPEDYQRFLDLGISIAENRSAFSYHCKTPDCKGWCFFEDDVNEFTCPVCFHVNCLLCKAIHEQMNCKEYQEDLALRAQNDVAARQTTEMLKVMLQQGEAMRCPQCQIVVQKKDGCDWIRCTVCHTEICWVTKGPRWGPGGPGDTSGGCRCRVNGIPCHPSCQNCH
UniProt Q96EP0: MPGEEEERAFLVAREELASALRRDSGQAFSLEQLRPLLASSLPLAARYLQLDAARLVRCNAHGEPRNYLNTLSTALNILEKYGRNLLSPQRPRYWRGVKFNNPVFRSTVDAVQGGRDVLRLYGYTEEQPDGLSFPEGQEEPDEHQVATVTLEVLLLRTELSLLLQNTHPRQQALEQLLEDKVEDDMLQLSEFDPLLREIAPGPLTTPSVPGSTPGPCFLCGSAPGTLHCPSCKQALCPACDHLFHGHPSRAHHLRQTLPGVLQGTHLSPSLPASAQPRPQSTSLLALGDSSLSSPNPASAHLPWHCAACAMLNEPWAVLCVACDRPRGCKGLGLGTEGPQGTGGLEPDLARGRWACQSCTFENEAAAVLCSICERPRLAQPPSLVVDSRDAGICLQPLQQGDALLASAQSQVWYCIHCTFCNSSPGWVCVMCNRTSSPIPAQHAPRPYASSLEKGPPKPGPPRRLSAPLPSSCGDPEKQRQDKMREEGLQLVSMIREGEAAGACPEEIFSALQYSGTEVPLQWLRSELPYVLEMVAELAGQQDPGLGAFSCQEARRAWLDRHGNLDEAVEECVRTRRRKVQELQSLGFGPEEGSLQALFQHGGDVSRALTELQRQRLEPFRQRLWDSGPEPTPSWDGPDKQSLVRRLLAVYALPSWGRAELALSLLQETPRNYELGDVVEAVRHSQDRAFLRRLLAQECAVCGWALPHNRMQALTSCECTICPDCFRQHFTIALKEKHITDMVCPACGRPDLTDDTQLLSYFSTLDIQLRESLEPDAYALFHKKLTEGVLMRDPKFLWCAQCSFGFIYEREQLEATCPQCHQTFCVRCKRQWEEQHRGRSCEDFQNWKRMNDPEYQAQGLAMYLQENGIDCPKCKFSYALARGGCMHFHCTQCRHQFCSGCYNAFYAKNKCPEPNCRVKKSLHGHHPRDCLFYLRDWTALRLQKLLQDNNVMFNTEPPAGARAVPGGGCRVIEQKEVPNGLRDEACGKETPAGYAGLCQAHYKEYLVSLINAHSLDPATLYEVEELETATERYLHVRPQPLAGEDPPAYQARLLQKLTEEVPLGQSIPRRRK
UniProt O00463: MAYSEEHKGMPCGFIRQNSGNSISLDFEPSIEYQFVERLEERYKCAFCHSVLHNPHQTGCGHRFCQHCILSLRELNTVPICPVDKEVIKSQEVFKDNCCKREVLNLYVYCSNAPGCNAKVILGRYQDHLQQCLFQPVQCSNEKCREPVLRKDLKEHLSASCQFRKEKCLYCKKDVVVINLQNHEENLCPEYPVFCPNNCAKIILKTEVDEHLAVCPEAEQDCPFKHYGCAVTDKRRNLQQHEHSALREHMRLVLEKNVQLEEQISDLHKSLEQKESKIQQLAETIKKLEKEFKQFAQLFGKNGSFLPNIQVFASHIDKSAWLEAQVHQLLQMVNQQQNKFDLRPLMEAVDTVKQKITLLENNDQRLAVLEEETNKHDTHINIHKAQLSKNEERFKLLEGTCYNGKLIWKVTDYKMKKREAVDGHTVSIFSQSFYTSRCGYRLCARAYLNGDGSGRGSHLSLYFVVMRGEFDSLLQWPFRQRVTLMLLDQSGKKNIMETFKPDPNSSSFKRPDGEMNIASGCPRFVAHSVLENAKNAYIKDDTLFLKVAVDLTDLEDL
UniProt Q9Y6K9: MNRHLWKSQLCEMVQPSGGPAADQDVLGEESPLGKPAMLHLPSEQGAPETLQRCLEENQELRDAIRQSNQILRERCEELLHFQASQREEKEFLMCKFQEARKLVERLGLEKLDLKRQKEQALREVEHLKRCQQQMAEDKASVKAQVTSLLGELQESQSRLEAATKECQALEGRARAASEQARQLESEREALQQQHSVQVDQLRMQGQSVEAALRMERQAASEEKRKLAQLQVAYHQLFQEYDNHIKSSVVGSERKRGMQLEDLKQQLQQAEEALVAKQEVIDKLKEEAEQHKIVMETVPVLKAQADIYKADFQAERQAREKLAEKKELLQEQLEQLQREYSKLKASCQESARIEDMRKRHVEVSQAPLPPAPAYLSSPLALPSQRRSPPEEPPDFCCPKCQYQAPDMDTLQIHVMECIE
UniProt Q13114: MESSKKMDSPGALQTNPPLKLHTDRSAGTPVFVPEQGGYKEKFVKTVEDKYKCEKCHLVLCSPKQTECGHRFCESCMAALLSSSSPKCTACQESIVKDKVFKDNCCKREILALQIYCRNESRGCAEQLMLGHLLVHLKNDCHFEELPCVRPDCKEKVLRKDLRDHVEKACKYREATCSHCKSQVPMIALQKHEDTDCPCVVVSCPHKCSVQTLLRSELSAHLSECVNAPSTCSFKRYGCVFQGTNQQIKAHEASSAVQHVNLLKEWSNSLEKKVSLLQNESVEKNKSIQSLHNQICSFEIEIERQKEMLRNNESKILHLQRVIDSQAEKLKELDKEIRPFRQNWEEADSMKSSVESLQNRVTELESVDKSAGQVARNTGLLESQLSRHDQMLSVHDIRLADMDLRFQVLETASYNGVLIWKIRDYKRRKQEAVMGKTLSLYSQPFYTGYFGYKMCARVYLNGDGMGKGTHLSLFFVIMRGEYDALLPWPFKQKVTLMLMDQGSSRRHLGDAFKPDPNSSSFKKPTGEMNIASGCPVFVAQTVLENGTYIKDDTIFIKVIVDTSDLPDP

Experiments:
[1] = target: CD137 (4-1BB, TNFRSF9) (human (endogenous in primary CD8 T cells)) (UniProt Q07011); test: affinity purification with mass spectrometry; preactivated primary human CD8 T cells, MG132, resting or 15 min at 37°C on plates coated with CD137L, anti-CD3 or both (part left on ice); 1% Brij96 lysates; IP with anti-CD137 6B4 on magnetic microbeads against control IgG; tryptic digest, LC-MS/MS
[2] = target: CD137 (4-1BB), stably transfected in Jurkat cells (UniProt Q07011); test: affinity purification with mass spectrometry; CD137 stably transfected Jurkat cells, MG132, stimulated on CD137L-Fc-coated plates 15 min; 1% Brij96 lysates; IP with anti-CD137 6B4 on magnetic microbeads against control IgG; LC-MS/MS

| Substance | binding [1] | binding [2] |
| --- | --- | --- |
| HOIL-1 (from UniProt Q9BYM8 1-510) | binds |  |
| HOIP (from UniProt Q96EP0 1-1072) | binds |  |
| TRAF5 (from UniProt O00463 1-557) | binds | binds |

Second part, the substance after the results:

| binding [1] | binding [2] | Substance |
| --- | --- | --- |
| binds |  | NEMO (from UniProt Q9Y6K9 1-419) |
| binds | binds | TRAF3 (from UniProt Q13114 1-568) |

Results are given in words; binding and its absence hold for the method and conditions named. In cells and extracts the contact can be indirect. Here binding means that the protein was enriched with, or labelled near, the bait; the list need not be complete.
